Reference: patent US20170240522A1, “BENZOTHIOPHENE, BENZYLOXYBENZYLIDENE AND INDOLINE DERIVATIVES USEFUL FOR THE TREATMENT OF TUBERCULOSIS” (priority 2014, published 2017)
At least one compound was matched to its structure with a doubt left.

System: Mtb expressing GFP in infected fibroblasts
Type: cell-based, Mycobacterium tuberculosis
Conditions: compound concentration 5 μM (FIG. 2D)

CO[C@H]1/C=C/O[C@@]2(C)Oc3c(C)c(O)c4c(O)c(c(/C=N/N5CCN(C)CC5)c(O)c4c3C2=O)NC(=O)/C(C)=C\C=C\[C@H](C)[C@H](O)[C@@H](C)[C@@H](O)[C@@H](C)[C@H](OC(C)=O)[C@@H]1C [rifampicin, reference compound]
GFP fluorescence of Mtb in infected fibroblasts: no fluorescence was detected
